These are yes or no findings as the source states them, for the method shown. Binding seen in cells or lysates may run through a third protein.
Columns and labels:
CD8a–GFP = CD8a–GFP (UniProt P01732); assay: co-IP; Fig. 3D,E: HEK293T lysates expressing GFP-tagged chimeras, immunoprecipitation with an anti-GFP antibody, blotted for endogenous TNPO1 and GFP
[1] = molecular target: IL2Rα–GFP (interleukin 2 receptor α subunit) (UniProt P01589); assay: as above

The chains behind the UniProt entries cited, without tags or fusion partners. Residues count along the entry.
UniProt P01732, residues 22-235: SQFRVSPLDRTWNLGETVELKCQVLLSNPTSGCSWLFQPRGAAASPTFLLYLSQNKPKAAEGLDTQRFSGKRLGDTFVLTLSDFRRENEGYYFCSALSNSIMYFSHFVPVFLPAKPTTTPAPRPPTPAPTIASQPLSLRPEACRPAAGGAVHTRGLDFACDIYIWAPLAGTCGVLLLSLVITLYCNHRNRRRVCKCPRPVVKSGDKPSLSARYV
UniProt P01589, residues 22-272: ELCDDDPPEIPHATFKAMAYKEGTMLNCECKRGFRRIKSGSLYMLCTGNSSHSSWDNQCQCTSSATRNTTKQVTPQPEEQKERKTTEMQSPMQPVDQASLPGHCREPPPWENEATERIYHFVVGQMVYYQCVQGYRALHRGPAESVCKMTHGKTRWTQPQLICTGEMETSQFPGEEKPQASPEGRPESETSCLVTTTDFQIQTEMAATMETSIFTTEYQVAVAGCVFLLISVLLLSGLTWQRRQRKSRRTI
UniProt Q92973: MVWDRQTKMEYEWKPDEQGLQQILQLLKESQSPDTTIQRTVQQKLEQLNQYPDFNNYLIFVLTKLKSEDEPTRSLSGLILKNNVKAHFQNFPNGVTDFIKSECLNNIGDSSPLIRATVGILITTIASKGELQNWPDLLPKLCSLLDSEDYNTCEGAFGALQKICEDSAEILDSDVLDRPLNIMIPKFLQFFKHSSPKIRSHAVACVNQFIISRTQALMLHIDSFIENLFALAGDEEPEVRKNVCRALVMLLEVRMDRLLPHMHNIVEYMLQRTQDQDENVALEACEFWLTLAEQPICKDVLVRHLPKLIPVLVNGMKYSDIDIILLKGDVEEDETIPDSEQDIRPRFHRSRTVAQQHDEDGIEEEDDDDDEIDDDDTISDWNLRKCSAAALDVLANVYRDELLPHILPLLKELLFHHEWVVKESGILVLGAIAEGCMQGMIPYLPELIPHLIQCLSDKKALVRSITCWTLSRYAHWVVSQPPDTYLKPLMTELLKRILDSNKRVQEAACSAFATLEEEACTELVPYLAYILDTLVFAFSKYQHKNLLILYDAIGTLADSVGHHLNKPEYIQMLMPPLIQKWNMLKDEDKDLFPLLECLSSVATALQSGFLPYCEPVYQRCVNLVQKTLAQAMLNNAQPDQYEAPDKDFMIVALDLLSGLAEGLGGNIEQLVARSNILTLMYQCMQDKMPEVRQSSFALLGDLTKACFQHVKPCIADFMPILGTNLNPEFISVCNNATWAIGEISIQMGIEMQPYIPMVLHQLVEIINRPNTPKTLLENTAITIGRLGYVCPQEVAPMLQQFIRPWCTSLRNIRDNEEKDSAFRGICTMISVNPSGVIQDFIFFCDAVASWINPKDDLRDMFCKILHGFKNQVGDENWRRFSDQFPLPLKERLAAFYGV

For “transportin1 (TNPO1), endogenous in HEK293T cells (from UniProt Q92973 1-898)”, the binding (CD8a–GFP) was “no binding” and the binding [1] was “no binding”.

— article PMC5087665
